We go through 1 molecule from ChEMBL document CHEMBL1121911, “Analgesic narcotic antagonists. 8. 7 alpha-Alkyl-4,5 alpha-epoxymorphinan-6-ones” (1981).

The test system of this assay is Mus musculus. As to the kind of experiment: Narcotic agonistic activity in acetic acid mouse writhing assay after subcutaneous administration of the drug. The format is functional. The conditions noted are these: sc. Summed up:
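Subcutaneous dosing. Salts were given in distilled H2O, and free bases were dissolved with 1 N HCl and then diluted. Each ED50 (agonist) or AD50 (antagonist) came from at least three doses, with at least five animals per dose.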

By ED50 is commonly meant the dose that gives a 50% effect, or the effect in half of the subjects. Low readings indicate greater potency, high ones weaker potency. Molecule `CN1CC[C@]23c4c5ccc(O)c4O[C@H]2[C@@H](O)C=C[C@H]3[C@H]1C5` [MORPHINE] had an ED50 of 2.1 µmol/kg.
